# According to paper PMC7819943, “Rice protein-binding microarrays: a tool to detect cis-acting elements near promoter regions in rice”:
# Chains of the proteins cited; added tags and fusions are not shown.
# UniProt Q0JBA9, entry or part of it: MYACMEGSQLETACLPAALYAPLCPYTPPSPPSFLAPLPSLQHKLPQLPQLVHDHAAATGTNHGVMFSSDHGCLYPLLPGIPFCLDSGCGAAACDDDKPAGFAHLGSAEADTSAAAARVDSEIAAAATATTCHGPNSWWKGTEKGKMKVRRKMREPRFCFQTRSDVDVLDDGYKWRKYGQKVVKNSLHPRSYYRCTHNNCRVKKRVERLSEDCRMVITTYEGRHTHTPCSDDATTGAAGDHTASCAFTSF
# The other results are listed elsewhere or left out.
# Target: OsWRKY34 (Oryza sativa, UniProt Q0JBA9 1-250)
# Assay: protein-binding microarray (RPBM); PBS, 2% BSA, 51.3 ng/ul salmon testes DNA, 50 uM zinc acetate, 200 nM TF, 25 C, 1 h; high values mean tight binding
# Conditions: protein: recombinant; tags: N-terminal polyhistidine and DsRed monomer fusion (pET32a); label: CyDye5-dUTP incorporated in the synthesized complementary strand; 3' TTTTT single-stranded linker to array surface; dsDNA, one strand shown
# Procedure, shortened: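 For the binding signal, per-feature fluorescence intensity was read in arbitrary units on an Axon 4000B scanner. Before scanning, a 2% BSA-blocked custom Agilent array made double-stranded with Cy5-dUTP was washed after 1 h at 25 °C with 200 nM protein and 50 µM zinc acetate. The proteins were Ni–NTA-purified transcription factors with N-terminal polyhistidine and DsRed fusions, expressed in E. coli BL21-CodonPlus.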
row,Sequence,binding signal
1,CGCCGTTGACTTTTTCTCATATGTTTGACCATTCATCTTACGGAGTCACCTAGTGCAG,38900 fluorescence intensity (a.u.)
2,CGCCCAATTCATGACGCCTCCTCGCCGGCTTCGCCGCACTCGGAGTCACCTAGTGCAG,8620 fluorescence intensity (a.u.)
3,GATCTCTTTTTCGCCGCGCGTGAAGCCCATCTCCCTGCCACGGAGTCACCTAGTGCAG,8460 fluorescence intensity (a.u.)
4,AAATCATCGTCATTGTCGTTGTTTTGTTGTTGCCAGTTTACGGAGTCACCTAGTGCAG,8450 fluorescence intensity (a.u.)
5,TCTCCTGCTCTGGTCTCTCCATCACCTAATAGGACCCATCCGGAGTCACCTAGTGCAG,8380 fluorescence intensity (a.u.)
6,TCATAACAGTCAAAAATTTGCTAGGTCTGTCCTTATGTCACGGAGTCACCTAGTGCAG,9350 fluorescence intensity (a.u.)
7,ATTCCACCGTAGTCGTACCCCGCCCTCTGCTTTTACTAGTCGGAGTCACCTAGTGCAG,14000 fluorescence intensity (a.u.)
8,CCCCTCGAGTCTGATCCTCCCACTACCAACGTCCACCGGCCGGAGTCACCTAGTGCAG,9210 fluorescence intensity (a.u.)
9,GTCGTGCCGTCTCCAGTCCCGTCGCCGCGCCGCCTCCTCGCGGAGTCACCTAGTGCAG,12900 fluorescence intensity (a.u.)
10,ATTGCTTTGTAGTAATCCATCCATGCACCCACCTCTCTTTCGGAGTCACCTAGTGCAG,9200 fluorescence intensity (a.u.)
11,CATAACAACATACAAATCAAGCTATACATCCATGATTTTTCGGAGTCACCTAGTGCAG,8720 fluorescence intensity (a.u.)
12,CCTAGCTATGACTATCAATATCCTATATCCTATGCCGTTTCGGAGTCACCTAGTGCAG,9370 fluorescence intensity (a.u.)
13,GCCATCTATCTTTCCACAATATATACTCACCTTCACCACCCGGAGTCACCTAGTGCAG,8500 fluorescence intensity (a.u.)
14,GTATTGTGTCCGGTTTTAACGCCTACGTGGCTTCTTTTGACGGAGTCACCTAGTGCAG,12200 fluorescence intensity (a.u.)
15,CGGACCCTCATATTATCCATTGCTTACTGTTTCAGCAATTCGGAGTCACCTAGTGCAG,8330 fluorescence intensity (a.u.)
16,TGGAGTACCACCTTTGGTTTGTTCAAGCTGTTTTCTTTTTCGGAGTCACCTAGTGCAG,9850 fluorescence intensity (a.u.)
17,TAGTTGTTGTTGTTGTTATTTGTTAATTGGGCCTTGTTCACGGAGTCACCTAGTGCAG,12300 fluorescence intensity (a.u.)
18,TTCCATTTCTTGGCACCACCTCCGAGGCTCTGACTTCCTACGGAGTCACCTAGTGCAG,8030 fluorescence intensity (a.u.)
19,ACATGTCGCTCACCGCTGTGAGATTCCTTAACCGGGCTAGCGGAGTCACCTAGTGCAG,8340 fluorescence intensity (a.u.)
20,TGGCCTGCGGGACTTCACCCTCGTTCGCTGCCTGGGCGCCCGGAGTCACCTAGTGCAG,8490 fluorescence intensity (a.u.)
21,CTCGCTAACGTCTCTCTGCCGCTGTCCCCTTCTCCGGATCCGGAGTCACCTAGTGCAG,12400 fluorescence intensity (a.u.)

# Rewritten tab-delimited: part of the list above.
row	Sequence	binding signal
6	TCATAACAGTCAAAAATTTGCTAGGTCTGTCCTTATGTCACGGAGTCACCTAGTGCAG	9350 fluorescence intensity (a.u.)
13	GCCATCTATCTTTCCACAATATATACTCACCTTCACCACCCGGAGTCACCTAGTGCAG	8500 fluorescence intensity (a.u.)

# More results:

row,Sequence,binding signal
1,TCCATATACTCCCTCCGTCCCTAAATATTTGACGCCATTGCGGAGTCACCTAGTGCAG,8190 fluorescence intensity (a.u.)
2,GACCGCGCATCGTCTCCTCCGCCAGCAAACCACTGCTCTTCGGAGTCACCTAGTGCAG,9210 fluorescence intensity (a.u.)
3,AAGGGTGATTAACTTTGGGAAGGGTTGGGGCAGTTGATGTCGGAGTCACCTAGTGCAG,9440 fluorescence intensity (a.u.)
4,CCGCCGCCAGCCGCCACCACTCCGGCCCATGCCCGCCGCCCGGAGTCACCTAGTGCAG,9620 fluorescence intensity (a.u.)
5,TCTCCGTTGTAATATGTTCTTTGTCCTCGATGTGTTTCCGCGGAGTCACCTAGTGCAG,11400 fluorescence intensity (a.u.)
6,TTTCACCCTATCACATTGAATATTTGGACACATGCATGGACGGAGTCACCTAGTGCAG,8850 fluorescence intensity (a.u.)
7,TCAATCGCACATCCTCCTATCCGGAGGCATGATTTTGTTACGGAGTCACCTAGTGCAG,8740 fluorescence intensity (a.u.)
8,ATTCTTGAAGGCCGTGATGGGGAGGCTGTTCATGGCGCTGCGGAGTCACCTAGTGCAG,8510 fluorescence intensity (a.u.)
9,ATGTAAGTCATTTTAGCATTTCTCACATTTATATTTATGCCGGAGTCACCTAGTGCAG,9330 fluorescence intensity (a.u.)
10,TTAGTACTATTAATTTGGTGGGGTTGGGTGGGTGCTGTAACGGAGTCACCTAGTGCAG,16700 fluorescence intensity (a.u.)
11,ATGGCTGAGTTGATTGGTCTTTCATTTGCTAAAGGTATGACGGAGTCACCTAGTGCAG,8400 fluorescence intensity (a.u.)
12,GTCCTTCTACCTTCTTTGCAGTTGGCCGTAATAGTAATACCGGAGTCACCTAGTGCAG,9180 fluorescence intensity (a.u.)
13,CAGTTTATTCCGCGTTCGTGTGTAGCTTACCGTGACTTTTCGGAGTCACCTAGTGCAG,11500 fluorescence intensity (a.u.)
14,AACCTCCGATTTCCAGTCCATTCTCCTCCATGATCCAAACCGGAGTCACCTAGTGCAG,9040 fluorescence intensity (a.u.)
15,CTTTCTCCGTTTCTTCCATCTCCGTCAACCTACCGGCGTACGGAGTCACCTAGTGCAG,10900 fluorescence intensity (a.u.)
16,CCGTCATACACGCCAGCCCGCTGCTCACGCTGTCGTCACCCGGAGTCACCTAGTGCAG,8890 fluorescence intensity (a.u.)
17,CCATCAGGTGCGGTGGAGAACGAAACCCTACCTCCCAGCCCGGAGTCACCTAGTGCAG,8160 fluorescence intensity (a.u.)
18,AACCAGCAGTGCGGCACCTTTAATAAATTAAAGGTTTTTTCGGAGTCACCTAGTGCAG,8700 fluorescence intensity (a.u.)
19,GGTTACAGATCTGTAGTCCGTTACTCTTCTCTCTCTTCCTCGGAGTCACCTAGTGCAG,8820 fluorescence intensity (a.u.)
20,CCTTTTTCTTCTAATCTCCTCATTCTTCTTAATTCTTAAGCGGAGTCACCTAGTGCAG,10500 fluorescence intensity (a.u.)
21,AAACACGGCCATATTTTCTTTCTGGGTTTTGCAATCTTCTCGGAGTCACCTAGTGCAG,8690 fluorescence intensity (a.u.)
